Source: patent US20050119205A1, “Methods of modulating heme oxygenase-1 expression and treating heme oxygenase-1 mediated conditions” (published 2005)
For some assays here: No signal at the amounts used counts as a negative. Protein sequences can lack the tags named with them. For some assays here: The exact form of at least one protein or probe is not confirmed. For some assays here: A weaker result is weaker than the reference pair of the same experiment.

Experiments:
[1] = molecular target: T1, biliverdin reductase (hBVR), E. coli expressed, monomeric (Homo sapiens) (UniProt P53004); experiment: EMSA; settings: monomeric E. coli protein; purified recombinant protein; label: 32P 5'
T1 sequence (limits assumed): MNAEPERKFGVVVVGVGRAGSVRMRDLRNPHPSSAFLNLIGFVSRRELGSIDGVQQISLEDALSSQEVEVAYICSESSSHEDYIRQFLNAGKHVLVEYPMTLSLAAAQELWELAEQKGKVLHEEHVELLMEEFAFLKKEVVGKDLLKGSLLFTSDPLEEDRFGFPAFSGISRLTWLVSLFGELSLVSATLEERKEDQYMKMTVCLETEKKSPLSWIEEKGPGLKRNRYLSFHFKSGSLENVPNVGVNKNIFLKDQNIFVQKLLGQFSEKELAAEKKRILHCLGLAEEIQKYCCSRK

[2] = molecular target: T2, biliverdin reductase (hBVR) (Homo sapiens) (UniProt P53004); experiment: EMSA; settings: subdued signal comparable to zero AP-1 fragment, AP-1-unrelated interaction; protein translated in vitro; protein details: rabbit reticulocyte lysate, 35S-Met labelled; label: 32P 5'
T2 sequence (limits assumed): T1 sequence (limits assumed)

Row | Sequence | binding result [1] | binding result [2]
1 | TCCTCAGCTGCTTTTATGCTGTGTCATGGTTGGGAGGGGTGATTAGCAGACAAAGGGAAGACAGATTTTGCTGAGTCACCCTCTGTTCCCTCTGCCTCAG (double strand) [100-mer HO-1 promoter, two AP-1 sites (OL.623/OL.624)] | no binding | 
2 | TCCTCAGCTGCTTTTATGCTGTGTCATGGTTGGGAGGGGTGATTAGCAGACAAAGGGAAGACAGATTTTGCGATCCTCCCCTCTGTTCCCTCTGCCTCAG / CTGAGGCAGAGGGAACAGAGGGGAGGATCGCAAAATCTGTCTTCCCTTTGTCTGCTAATCACCCCTCCCAACCATACACAGCATAAAAGCAGCTGAGGA [100-mer, one AP-1 site (OL.619/OL.620)] |  | binds more weakly
